Measurements reported in PubChem BioAssay AID1159584 (Peter MacCallum Cancer Centre, 2016).
The deposit covers about 18,000 reagents; this is an unselected part. The record does not give: the amount of reagent, the time to read-out.

Purpose: 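Knock-downs that harm CDH1-null cells more than parental MCF10A cells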 (primary screen)
Cells: human MCF10A breast epithelial cells, parental and CDH1-null
Reagent: siRNA against human genes
Measured: 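Cell viability by CellTiter-Glo ATP luminescence, each line scaled to the mean of mock wells across plates, then CDH1-null over parental ratio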
Scale: CDH1-null / parental viability ratio: higher = CDH1-null cells survive relatively better than parental; CDH1-null viability vs mock: higher = more viable CDH1-null cells; parental viability vs mock: higher = more viable parental cells

gene symbol	CDH1-null / parental viability ratio	CDH1-null viability vs mock (fraction of mock)	parental viability vs mock (fraction of mock)
DNER	0.94	0.62	0.66
SLC67A1	0.67	0.36	0.54
RPAIN	0.92	0.9	0.98
POLR2F	1.96	0.49	0.25
SLC7A4	0.87	0.61	0.7
DYRK4	0.88	0.64	0.73
TREML2	1.01	0.75	0.74
RCN2	1	0.77	0.77
GNE	1.06	0.85	0.8
VAX2	0.99	0.9	0.91
FBN3	0.59	0.38	0.64
PRF1	0.79	0.84	1.06
FAM174A	1.2	0.89	0.74
LGALS13	1.01	0.83	0.82
SRM	0.89	0.77	0.87
SOX9	1.08	0.78	0.72
SGSM1	1.01	0.85	0.84
TICAM1	0.96	0.9	0.94
CALHM2	0.83	0.6	0.72
PEBP1	1.16	0.81	0.7
SPTLC2	0.97	0.83	0.86
ZFAND3	1.04	0.85	0.82
KRT78	1.02	0.88	0.86
MCM9	1	1.08	1.08
FBXO17	0.85	0.7	0.82
BMP4	1.16	0.88	0.76
SLC25A27	0.75	0.51	0.68
MAPK3	0.96	0.76	0.79
OR4A5	1.07	0.91	0.85
DYNC2I1	0.91	0.78	0.86
MARVELD3	1.35	0.84	0.62
CTAGE1	1.27	1.14	0.9
DAPL1	0.94	0.3	0.32
VBP1	0.96	1.07	1.12
SIN3B	1.87	0.97	0.52
RNASE1	0.95	0.87	0.92
VPREB1	0.95	0.8	0.84
DYDC1	0.82	0.31	0.38
BCL2L11	1.02	1.08	1.06
TLL2	1.25	0.6	0.48
ZNF572	1.16	0.96	0.83
FCN1	0.75	0.58	0.77
MPP4	0.71	0.48	0.68
NOTCH2	0.95	0.75	0.79
LCN15	0.83	0.35	0.42
ABCA10	1.1	1.12	1.02
SH3KBP1	1.07	0.64	0.6
DNAJC5B	0.88	0.79	0.9
GLOD5	1.03	0.94	0.91
RIN1	0.95	0.55	0.58
MYH2	0.95	0.7	0.74
REM2	0.81	0.34	0.42
SH3RF1	0.91	0.82	0.9
LRCH1	0.92	0.84	0.91
ABCG4	1.21	0.58	0.48
CACNG4	1.28	1	0.78
PHLDB1	0.9	0.6	0.67
TPI1	1	1.06	1.06
RHOT2	1.02	0.9	0.88
AKAP1	0.87	0.7	0.8
TWF2	1.08	0.92	0.85
DUSP18	1.43	0.97	0.68
SIAE	1	0.86	0.86
KRTAP13-1	1.05	0.8	0.76
HMGCL	0.87	0.71	0.82
ZBTB21	1.46	0.92	0.63
PIDD1	1.08	0.83	0.77
LRRD1	0.94	0.96	1.02

Entries listed so far whose gene name begins with S or s (11):
gene symbol	CDH1-null / parental viability ratio	CDH1-null viability vs mock (fraction of mock)	parental viability vs mock (fraction of mock)
SLC67A1	0.67	0.36	0.54
SLC7A4	0.87	0.61	0.7
SRM	0.89	0.77	0.87
SOX9	1.08	0.78	0.72
SGSM1	1.01	0.85	0.84
SPTLC2	0.97	0.83	0.86
SLC25A27	0.75	0.51	0.68
SIN3B	1.87	0.97	0.52
SH3KBP1	1.07	0.64	0.6
SH3RF1	0.91	0.82	0.9
SIAE	1	0.86	0.86
